Test results reported in patent US20250002921.

Amino acid sequences for entries named in this document (tags omitted).
UniProt P40763, whole entry: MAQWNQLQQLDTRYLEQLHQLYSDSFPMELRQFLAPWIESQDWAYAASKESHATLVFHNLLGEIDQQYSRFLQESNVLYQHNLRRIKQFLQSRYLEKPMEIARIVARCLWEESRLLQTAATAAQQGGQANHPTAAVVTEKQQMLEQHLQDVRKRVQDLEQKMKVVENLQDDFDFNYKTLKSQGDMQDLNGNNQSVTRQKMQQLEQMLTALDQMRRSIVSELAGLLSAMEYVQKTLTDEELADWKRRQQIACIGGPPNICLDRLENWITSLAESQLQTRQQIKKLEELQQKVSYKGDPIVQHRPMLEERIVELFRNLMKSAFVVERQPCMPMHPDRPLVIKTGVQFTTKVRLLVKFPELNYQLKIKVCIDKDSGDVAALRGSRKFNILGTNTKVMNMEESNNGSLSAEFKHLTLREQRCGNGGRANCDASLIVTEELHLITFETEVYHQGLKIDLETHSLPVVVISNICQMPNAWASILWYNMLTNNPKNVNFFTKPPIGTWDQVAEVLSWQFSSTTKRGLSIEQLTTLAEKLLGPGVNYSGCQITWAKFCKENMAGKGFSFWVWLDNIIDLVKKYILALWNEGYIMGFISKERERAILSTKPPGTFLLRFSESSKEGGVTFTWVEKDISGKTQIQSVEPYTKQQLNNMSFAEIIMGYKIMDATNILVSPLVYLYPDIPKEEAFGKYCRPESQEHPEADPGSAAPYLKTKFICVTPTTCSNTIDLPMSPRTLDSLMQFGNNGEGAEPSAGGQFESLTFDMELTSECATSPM

Assays:
[1] = target: STAT3 (HEK-Blue IL-6 reporter cells) (UniProt P40763); assay: activity in cells; details: thiolated, multivalent on 13 nm gold nanoparticle core, protein in cells, dose not given here
[2] = target: STAT3 (Homo sapiens) (UniProt P40763); assay: EMSA; details: thiolated, multivalent on 13 nm gold nanoparticle core; ISD45-SNA did not bind STAT3; 20 mM Tris pH 7.2, RT; purified recombinant protein

TACAACATTTCCCGTAAATCGGGGGGATTTACGGGAAATGTTGTA [ISDG5STAT3i-SNA]
functional effect of the aptamer ([1]; represses STAT3-driven IL-6 reporter (SEAP), folded or branched DNA): active

TACAGATCTACTAGTGATCTATGACTGATCTGTACATGATCTACA / ACATCTAGTACATGTCTAGTCAGTATCTAGTGATCATCAGACA [ISD45-SNA]
binding result [2]: no binding
functional effect of the aptamer ([1]; no repression of STAT3-driven IL-6 reporter): not active

For at least one entry, the source does not settle the construct or the ends of the probe. A negative result means that nothing was seen under these conditions.
